The text below walks through data of US20140051645A1 (Pieris, published 2014).

Results are given in words; binding and its absence hold for the method and conditions named. Some binding calls cover weakened binding; strength is not graded here.

In this experiment the target is T1, human CTLA-4-Fc (Chimerigen) (human, UniProt P16410 36-161, limits assumed).
T1 construct: Bought fusion protein; also called hCTLA4-Fc; not shown: It was captured by an anti-human IgG-Fc antibody
T1 sequence (looked up): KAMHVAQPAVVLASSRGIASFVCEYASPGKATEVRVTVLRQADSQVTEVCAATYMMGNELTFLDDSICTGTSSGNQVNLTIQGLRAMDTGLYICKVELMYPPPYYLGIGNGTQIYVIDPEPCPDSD
As to the kind of experiment: screening ELISA of crude lysates: mutein captured by T7 mAb, limited soluble human CTLA4-Fc; in some cases competition ELISA with mAb BNI3. Here is the method: Therein, NGAL variants equipped with a T7 detection tag (Novagen) as well as a Strep-tag II affinity tag (IBA) were soluble expressed in a 96 well microtiter plate using the E. coli strain TG1/F with phNGAL37 SEQ ID NO: 10. This vector corresponds to phNGAL15 SEQ ID NO: 11 as described in the following example 4 with an N-terminal T7 tag consisting of 11 amino acids ([…]). Lipocalin mutein expression was induced overnight at 22° C. at 700 rpm with anhydrotetracycline (0.2 μg/ml) at an OD₅₅₀ of 0.6. Afterwards, cells were lysed (100 mM Na-borate, pH 8.0, 80 mM NaCl, 1 mM EDTA, 0.025% w/v lysozyme) for 1 h under agitation. […]
In a reverse ELISA approach soluble expressed muteins from the crude cell lysate were captured via immobilized T7 mAb (5 μg/ml, Novagen) on wells of black Fluotrac 600 ELISA plates (Greiner; 384 well). […] Subsequently plates were washed five times and bound target was detected via an goat anti-human Fc monoclonal antibody-HRP conjugate (Jackson ImmunoResearch), diluted 1:5.000 in PBST/0.1. […] After 45 min of signal development at room temperature fluorescence was excited at a wavelength of 320 nm (±12.5 nm) and measured at 430 nm (±17.5 nm) in a GENiosPlus plate reader (Tecan). […]
For orientation: An ELISA detects its analyte on a solid surface through an enzyme-linked reagent.

B1: SEQ ID NO 12 (designed binder)
chain: MASMTGGQQMGQDSTSDLIPAPPLSKVPLQQNFQDNQFHGKWYVVGLAGNRLLRDDQHPMDMYATIYELKGDKSYNVTSVISSHKKCLYPIATFVPGSQPGEFTLGNIKSYGDKWSYLVRVVSTDYNQYAVVFFKHADTNYESFSITIYGRTKELASELKENFIRFSKSLGLPENHIVFPVPIDQCIDG
On to B1, for which the binding entry is listed as “binds”.
